From patent publication US20220267469A1
These are yes or no findings as the source states them, for the method shown.

Protein sequences, listed by entry. Tags and fused reporters are not part of them. Lines headed by an entry give the natural chain unless they say otherwise; changes in a name come on top.
UniProt Q64285: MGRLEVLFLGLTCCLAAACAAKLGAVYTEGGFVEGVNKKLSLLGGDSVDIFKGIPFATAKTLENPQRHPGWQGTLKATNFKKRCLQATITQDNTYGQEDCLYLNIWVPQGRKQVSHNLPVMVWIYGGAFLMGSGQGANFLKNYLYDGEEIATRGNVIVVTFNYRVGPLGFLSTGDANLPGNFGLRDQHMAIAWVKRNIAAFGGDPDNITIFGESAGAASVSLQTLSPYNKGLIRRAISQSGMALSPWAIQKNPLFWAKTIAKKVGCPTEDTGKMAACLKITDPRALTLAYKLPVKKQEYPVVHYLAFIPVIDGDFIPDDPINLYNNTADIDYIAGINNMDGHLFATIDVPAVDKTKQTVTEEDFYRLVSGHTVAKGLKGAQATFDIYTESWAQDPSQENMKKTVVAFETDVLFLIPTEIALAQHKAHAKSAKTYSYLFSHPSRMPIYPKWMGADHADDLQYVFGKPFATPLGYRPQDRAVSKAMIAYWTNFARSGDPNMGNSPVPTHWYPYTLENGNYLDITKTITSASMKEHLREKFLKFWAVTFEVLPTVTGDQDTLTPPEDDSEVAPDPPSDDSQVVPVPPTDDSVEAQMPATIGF

Target: Mouse BSSL, recombinant (mouse) (UniProt Q64285)
Test: SPR steady state, antibody captured by anti-Fab

B1: AS20 CDR graft hIgG4 S228P (antibody, V domains shown)
VH: QVQLVQSGAEVKKPGASVKVSCKASGYTFTSYNMHWVRQAPGQGLEWIGVIYPGNGDTSYNQKFKGRVTMTRDTSTSTVYMELSSLRSEDTAVYYCARDYYGSSPLGYWGQGTLVTVSS
VL: DIQMTQSPSSLSASVGDRVTITCSASSSISYMHWYQQKPGKAPKLLIYDTSKLASGVPSRFSGSGSGTDFTLTISSLQPEDFATYYCHQRSSYPTFGQGTKLEIKR
binding: no binding (tested: 800 nM)
